The record followed here is publication PMC10323247.

For the experiment, the target named is T1, HAUS2 with C-terminal mGFP-TEV-TwinStrep tag (human) (UniProt Q9NVX0).
T1 sequence: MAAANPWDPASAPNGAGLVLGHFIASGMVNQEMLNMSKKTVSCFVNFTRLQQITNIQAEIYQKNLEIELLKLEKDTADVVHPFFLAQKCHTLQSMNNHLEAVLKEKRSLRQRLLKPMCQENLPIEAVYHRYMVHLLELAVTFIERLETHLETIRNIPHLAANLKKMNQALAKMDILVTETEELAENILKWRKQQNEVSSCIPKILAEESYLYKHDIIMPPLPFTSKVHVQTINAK
Briefly: pull-down + SEC; eight subunits co-expressed in High Five cells; captured by the TwinStrep tag of HAUS2 on StrepTrap HP (lysis buffer with 400 mM NaCl), eluted with desthiobiotin, then Superose 6 Increase SEC (250 mM NaCl); subunits in fractions E2-E3 seen by SDS-PAGE and western blotting. Background: In western blotting, separated proteins are transferred to a membrane and probed.

No constants are given. Whether binding was seen depends on the method and setting. In cells and extracts the contact can be indirect. Some entries that bind do so weakly or less than the wild type. Sequences can lack the tags named with a protein.

B1: HAUS6 (protein, UniProt Q7Z4H7-1 1-955)
chain: MSSASVTAFEKEHLWMYLQALGFEPGPATIACGKIVSHTHLGVNMFDKLNRDAFHIISYFLFQVLDQSLTKEVFKFCWPPFDQKSDTEFRKHCCEWIKRISGECGSSFPQVVGSLFLSPGGPKFIHLMYHFARFVAMKYIKSNSKNSSHHFVETFNIKPQDLHKCIARCHFARSRFLQILQRQDCVTQKYQENAQLSVKQVRNLRSECIGLENQIKKMEPYDDHSNMEEKIQKVRSLWASVNETLMFLEKEREVVSSVLSLVNQYALDGTNVAINIPRLLLDKIEKQMFQLHIGNVYEAGKLNLLTVIQLLNEVLKVMKYERCQADQARLTVDLHYLEKETKFQKERLSDLKHMRYRIKDDLTTIRHSVVEKQGEWHKKWKEFLGLSPFSLIKGWTPSVDLLPPMSPLSFDPASEEVYAKSILCQYPASLPDAHKQHNQENGCRGDSDTLGALHDLANSPASFLSQSVSSSDRNSVTVLEKDTKMGTPKEKNEAISKKIPEFEVENSPLSDVAKNTESSAFGGSLPAKKSDPFQKEQDHLVEEVARAVLSDSPQLSEGKEIKLEELIDSLGSNPFLTRNQIPRTPENLITEIRSSWRKAIEMEENRTKEPIQMDAEHREVLPESLPVLHNQREFSMADFLLETTVSDFGQSHLTEEKVISDCECVPQKHVLTSHIDEPPTQNQSDLLNKKVICKQDLECLAFTKLSETSRMETFSPAVGNRIDVMGGSEEEFMKILDHLEVSCNKPSTNKTMLWNSFQISSGISSKSFKDNDFGILHETLPEEVGHLSFNSSSSSEANFKLEPNSPMHGGTLLEDVVGGRQTTPESDFNLQALRSRYEALKKSLSKKREESYLSNSQTPERHKPELSPTPQNVQTDDTLNFLDTCDLHTEHIKPSLRTSIGERKRSLSPLIKFSPVEQRLRTTIACSLGELPNLKEEDILNKSLDAKEPPSDLTR
On to B1, for which the binding entry is “binds”.

B2: HAUS5 (protein, UniProt O94927-1 1-633)
chain: MELAQEARELGCWAVEEMGVPVAARAPESTLRRLCLGQGADIWAYILQHVHSQRTVKKIRGNLLWYGHQDSPQVRRKLELEAAVTRLRAEIQELDQSLELMERDTEAQDTAMEQARQHTQDTQRRALLLRAQAGAMRRQQHTLRDPMQRLQNQLRRLQDMERKAKVDVTFGSLTSAALGLEPVVLRDVRTACTLRAQFLQNLLLPQAKRGSLPTPHDDHFGTSYQQWLSSVETLLTNHPPGHVLAALEHLAAEREAEIRSLCSGDGLGDTEISRPQAPDQSDSSQTLPSMVHLIQEGWRTVGVLVSQRSTLLKERQVLTQRLQGLVEEVERRVLGSSERQVLILGLRRCCLWTELKALHDQSQELQDAAGHRQLLLRELQAKQQRILHWRQLVEETQEQVRLLIKGNSASKTRLCRSPGEVLALVQRKVVPTFEAVAPQSRELLRCLEEEVRHLPHILLGTLLRHRPGELKPLPTVLPSIHQLHPASPRGSSFIALSHKLGLPPGKASELLLPAAASLRQDLLLLQDQRSLWCWDLLHMKTSLPPGLPTQELLQIQASQEKQQKENLGQALKRLEKLLKQALERIPELQGIVGDWWEQPGQAALSEELCQGLSLPQWRLRWVQAQGALQKLCS
For B2, the binding result is listed as “binds”.

B3: HAUS4 (protein, UniProt Q9H6D7-1 1-363)
chain: MASGDFCSPGEGMEILQQVCSKQLPPCNLSKEDLLQNPYFSKLLLNLSQHVDESGLSLTLAKEQAQAWKEVRLHKTTWLRSEILHRVIQELLVDYYVKIQDTNVTSEDKKFHETLEQRLLVTELMRLLGPSQEREIPPLLGLEKADLLELMPLSEDFVWMRARLQQEVEEQLKKKCFTLLCYYDPNSDADSETVKAAKVWKLAEVLVGEQQQCQDAKSQQKEQMLLLEKKSAAYSQVLLRCLTLLQRLLQEHRLKTQSELDRINAQYLEVKCGAMILKLRMEELKILSDTYTVEKVEVHRLIRDRLEGAIHLQEQDMENSRQVLNSYEVLGEEFDRLVKEYTVLKQATENKRWALQEFSKVYR
On to B3, for which the binding result is reported as “binds”.

B4: HAUS3 (protein, UniProt Q68CZ6-1 1-603)
chain: MSCGNEFVETLKKIGYPKADNLNGEDFDWLFEGVEDESFLKWFCGNVNEQNVLSERELEAFSILQKSGKPILEGAALDEALKTCKTSDLKTPRLDDKELEKLEDEVQTLLKLKNLKIQRRNKCQLMASVTSHKSLRLNAKEEEATKKLKQSQGILNAMITKISNELQALTDEVTQLMMFFRHSNLGQGTNPLVFLSQFSLEKYLSQEEQSTAALTLYTKKQFFQGIHEVVESSNEDNFQLLDIQTPSICDNQEILEERRLEMARLQLAYICAQHQLIHLKASNSSMKSSIKWAEESLHSLTSKAVDKENLDAKISSLTSEIMKLEKEVTQIKDRSLPAVVRENAQLLNMPVVKGDFDLQIAKQDYYTARQELVLNQLIKQKASFELLQLSYEIELRKHRDIYRQLENLVQELSQSNMMLYKQLEMLTDPSVSQQINPRNTIDTKDYSTHRLYQVLEGENKKKELFLTHGNLEEVAEKLKQNISLVQDQLAVSAQEHSFFLSKRNKDVDMLCDTLYQGGNQLLLSDQELTEQFHKVESQLNKLNHLLTDILADVKTKRKTLANNKLHQMEREFYVYFLKDEDYLKDIVENLETQSKIKAVSLED
As to B4, the binding result was “binds”.

B5: HAUS1 with C-terminal 3C-His6 tag (protein, UniProt Q96CS2-1 1-278)
chain: MEPQEERETQVAAWLKKIFGDHPIPQYEVNPRTTEILHHLSERNRVRDRDVYLVIEDLKQKASEYESEAKYLQDLLMESVNFSPANLSSTGSRYLNALVDSAVALETKDTSLASFIPAVNDLTSDLFRTKSKSEEIKIELEKLEKNLTATLVLEKCLQEDVKKAELHLSTERAKVDNRRQNMDFLKAKSEEFRFGIKAAEEQLSARGMDASLSHQSLVALSEKLARLKQQTIPLKKKLESYLDLMPNPSLAQVKIEEAKRELDSIEAELTRRVDMMEL
With B5, the binding result is recorded as “binds”.
